Literature values as cited in patent US20160310463A1, “LIQUID STATIN FORMULATION” (priority 2009, published 2016).
Some results were stated once for a whole list of compounds, not compound by compound. At least one structure is not confirmed: it was looked up by name or label, or the drawing left a doubt.

System: human plasma proteins
Settings: approximately; cited from earlier work

CCC(C)(C)C(=O)O[C@H]1C[C@@H](C)C=C2C=C[C@H](C)[C@H](CC[C@@H](O)C[C@@H](O)CC(=O)O)[C@H]21 [β-hydroxyacid metabolite]
bound to human plasma proteins: 95-98%
